Reference: the supplement of paper PMC6078165
The reference is the same well before dosing, and untreated signal decays as well.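 Fibroblast labels denote human fibroblasts, mainly primary ones from uterus (C12385, HUF), lung (H6013), bone (Hs27A), adrenal (HADF) and skin (WS1), plus mammary HMF and breast cancer-associated Hs343T. Cancer cells are basal-like or mesenchymal-like triple-negative breast cancer lines. A hit is a response shift exceeding 3x replicate standard deviation. The tissue of the other fibroblasts is not given here.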

Test system: MDAMB436
Experiment: relative JC-1 red fluorescence (viability) vs pre-drug, coculture with fibroblast (fraction); higher = more viable cancer cells
Procedure: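 JC-1 labelled TNBC cells cocultured 1:1 (1,500 cells each) with CellTrace Violet stained primary or stromal fibroblasts in 384-well plates in FluoroBrite medium, treated with one of 42 anticancer drugs at 0.1, 1, 10 or 100 uM. JC-1 red fluorescence (mitochondrial integrity in cancer cells only) was read by plate reader every 8 h for 72 h. Values are normalised to each well's pre-drug value. The stock of one drug was tenfold lower, so its dose labels may be too high.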

C#Cc1cccc(Nc2ncnc3cc(OCCOC)c(OCCOC)cc23)c1 [Erlotinib]
relative JC-1 red fluorescence
Conditions | 8 h | 16 h | 24 h | 32 h | 40 h | 48 h | 56 h | 64 h | 72 h
0.1 µM, coculture fibroblast: C12385 | 0.8081 | 0.705 | 0.676 | 0.597 | 0.544 | 0.52 | 0.488 | 0.467 | 0.452
0.1 µM, coculture fibroblast: H6013 | 0.84 | 0.743 | 0.727 | 0.717 | 0.686 | 0.703 | 0.659 | 0.639 | 0.596
0.1 µM, coculture fibroblast: H6019 | 0.743 | 0.689 | 0.666 | 0.594 | 0.552 | 0.533 | 0.4834 | 0.445 | 0.4103
0.1 µM, coculture fibroblast: H6076 | 0.7501 | 0.647 | 0.627 | 0.573 | 0.561 | 0.535 | 0.544 | 0.5473 | 0.533
0.1 µM, coculture fibroblast: H6231 | 0.779 | 0.698 | 0.682 | 0.6 | 0.568 | 0.533 | 0.507 | 0.467 | 0.436
0.1 µM, coculture fibroblast: HADF | 0.82059 | 0.746 | 0.704 | 0.672 | 0.638 | 0.649 | 0.588 | 0.567 | 0.525
0.1 µM, coculture fibroblast: HCFa | 0.834 | 0.751 | 0.726 | 0.694 | 0.659 | 0.667 | 0.6 | 0.588 | 0.534
0.1 µM, coculture fibroblast: HCPF | 0.795 | 0.713 | 0.6953 | 0.632 | 0.599 | 0.564 | 0.538 | 0.518 | 0.495
0.1 µM, coculture fibroblast: HHSteC | 0.81 | 0.754 | 0.7257 | 0.689 | 0.672 | 0.6863 | 0.6223 | 0.601 | 0.5422
0.1 µM, coculture fibroblast: HMF | 0.805 | 0.701 | 0.668 | 0.619 | 0.596 | 0.562 | 0.551 | 0.532 | 0.518
0.1 µM, coculture fibroblast: HPFa | 0.883 | 0.821 | 0.808 | 0.76 | 0.748 | 0.752 | 0.67 | 0.63 | 0.555
0.1 µM, coculture fibroblast: HUF | 0.835 | 0.746 | 0.734 | 0.664 | 0.613 | 0.589 | 0.567 | 0.554 | 0.544
0.1 µM, coculture fibroblast: Hs5 | 0.8167 | 0.7341 | 0.7041 | 0.646 | 0.614 | 0.571 | 0.566 | 0.531 | 0.52
0.1 µM, coculture fibroblast: Hs27A | 0.786 | 0.718 | 0.669 | 0.639 | 0.591 | 0.641 | 0.545 | 0.519 | 0.452
0.1 µM, coculture fibroblast: Hs343T | 0.767 | 0.654 | 0.608 | 0.558 | 0.529 | 0.5 | 0.494 | 0.478 | 0.478
0.1 µM, coculture fibroblast: WS1 | 0.7919 | 0.6894 | 0.6566 | 0.5713 | 0.5335 | 0.51 | 0.482 | 0.458 | 0.445
1 µM, coculture fibroblast: C12385 | 0.76 | 0.7357 | 0.74 | 0.68 | 0.648 | 0.635 | 0.622 | 0.606 | 0.6
1 µM, coculture fibroblast: H6013 | 0.824 | 0.811 | 0.807 | 0.804 | 0.798 | 0.827 | 0.778 | 0.76 | 0.707
1 µM, coculture fibroblast: H6019 | 0.77 | 0.742 | 0.747 | 0.69 | 0.66 | 0.646 | 0.609 | 0.572 | 0.536
1 µM, coculture fibroblast: H6076 | 0.7534 | 0.6983 | 0.718 | 0.682 | 0.665 | 0.6432 | 0.6593 | 0.6547 | 0.6467
1 µM, coculture fibroblast: H6231 | 0.748 | 0.666 | 0.705 | 0.6307 | 0.5977 | 0.584 | 0.565 | 0.546 | 0.515
1 µM, coculture fibroblast: HADF | 0.8099 | 0.77 | 0.755 | 0.741 | 0.726 | 0.76 | 0.688 | 0.684 | 0.64
1 µM, coculture fibroblast: HCFa | 0.836 | 0.863 | 0.881 | 0.87 | 0.879 | 0.915 | 0.852 | 0.848 | 0.804
1 µM, coculture fibroblast: HCPF | 0.763 | 0.718 | 0.749 | 0.697 | 0.68 | 0.651 | 0.636 | 0.623 | 0.599
1 µM, coculture fibroblast: HHSteC | 0.824 | 0.813 | 0.798 | 0.765 | 0.763 | 0.7816 | 0.7131 | 0.6922 | 0.6396
1 µM, coculture fibroblast: HMF | 0.738 | 0.676 | 0.678 | 0.631 | 0.612 | 0.583 | 0.581 | 0.568 | 0.559
1 µM, coculture fibroblast: HPFa | 0.886 | 0.854 | 0.84 | 0.815 | 0.81 | 0.825 | 0.758 | 0.732 | 0.649
1 µM, coculture fibroblast: HUF | 0.8231 | 0.76322 | 0.7561 | 0.6886 | 0.6425 | 0.616 | 0.59 | 0.57 | 0.563
1 µM, coculture fibroblast: Hs5 | 0.788 | 0.751 | 0.753 | 0.701 | 0.688 | 0.645 | 0.647 | 0.631 | 0.611
1 µM, coculture fibroblast: Hs27A | 0.835 | 0.761 | 0.768 | 0.753 | 0.733 | 0.796 | 0.687 | 0.667 | 0.595
1 µM, coculture fibroblast: Hs343T | 0.755 | 0.695 | 0.681 | 0.645 | 0.613 | 0.5812 | 0.577 | 0.561 | 0.553
1 µM, coculture fibroblast: WS1 | 0.7811 | 0.7446 | 0.7419 | 0.671 | 0.643 | 0.63136 | 0.6116 | 0.59019 | 0.57754
10 µM, coculture fibroblast: C12385 | 0.8537 | 0.8081 | 0.812 | 0.7629 | 0.7327 | 0.712 | 0.691 | 0.665 | 0.652
10 µM, coculture fibroblast: H6013 | 0.88 | 0.808 | 0.825 | 0.83 | 0.838 | 0.863 | 0.842 | 0.835 | 0.812
10 µM, coculture fibroblast: H6019 | 0.8004 | 0.7676 | 0.768 | 0.724 | 0.705 | 0.707 | 0.678 | 0.656 | 0.631
10 µM, coculture fibroblast: H6076 | 0.8 | 0.682 | 0.69 | 0.665 | 0.655 | 0.639 | 0.639 | 0.638 | 0.625
10 µM, coculture fibroblast: H6231 | 0.79 | 0.745 | 0.734 | 0.705 | 0.705 | 0.683 | 0.672 | 0.644 | 0.619
10 µM, coculture fibroblast: HADF | 0.8619 | 0.831 | 0.835 | 0.823 | 0.82 | 0.837 | 0.794 | 0.783 | 0.753
10 µM, coculture fibroblast: HCFa | 0.8773 | 0.829 | 0.84051 | 0.845 | 0.837 | 0.866 | 0.816 | 0.821 | 0.765
10 µM, coculture fibroblast: HCPF | 0.795 | 0.704 | 0.709 | 0.654 | 0.636 | 0.602 | 0.58 | 0.567 | 0.552
10 µM, coculture fibroblast: HHSteC | 0.8597 | 0.8225 | 0.8016 | 0.7779 | 0.776 | 0.787 | 0.734 | 0.707 | 0.654
10 µM, coculture fibroblast: HMF | 0.863 | 0.776 | 0.748 | 0.709 | 0.688 | 0.658 | 0.636 | 0.614 | 0.598
10 µM, coculture fibroblast: HPFa | 0.901 | 0.872 | 0.869 | 0.851 | 0.846 | 0.857 | 0.791 | 0.771 | 0.706
10 µM, coculture fibroblast: HUF | 0.876 | 0.8123 | 0.81 | 0.7577 | 0.73 | 0.705 | 0.68 | 0.675 | 0.667
10 µM, coculture fibroblast: Hs5 | 0.887 | 0.806 | 0.812 | 0.76 | 0.744 | 0.695 | 0.689 | 0.658 | 0.643
10 µM, coculture fibroblast: Hs27A | 0.919 | 0.915 | 0.913 | 0.8832 | 0.857 | 0.876 | 0.802 | 0.788 | 0.716
10 µM, coculture fibroblast: Hs343T | 0.8204 | 0.6985 | 0.726 | 0.707 | 0.703 | 0.687 | 0.678 | 0.675 | 0.677
10 µM, coculture fibroblast: WS1 | 0.81 | 0.7569 | 0.7347 | 0.684 | 0.6525 | 0.6401 | 0.613 | 0.586 | 0.566
100 µM, coculture fibroblast: C12385 | 0.922 | 0.94 | 0.882 | 0.927 | 0.915 | 0.923 | 0.916 | 0.897 | 0.887
100 µM, coculture fibroblast: H6013 | 0.974 | 0.908 | 0.824 | 0.835 | 0.836 | 0.773 | 0.792 | 0.719 | 0.814
100 µM, coculture fibroblast: H6019 | 0.838 | 0.82 | 0.8439 | 0.814 | 0.823 | 0.827 | 0.816 | 0.802 | 0.78
100 µM, coculture fibroblast: H6076 | 0.789 | 0.713 | 0.739 | 0.707 | 0.694 | 0.678 | 0.697 | 0.698 | 0.693
100 µM, coculture fibroblast: H6231 | 0.73 | 0.681 | 0.72 | 0.651 | 0.632 | 0.628 | 0.624 | 0.619 | 0.597
100 µM, coculture fibroblast: HADF | 0.915 | 0.933 | 0.95 | 0.85 | 0.84 | 0.846 | 0.875 | 0.868 | 0.913
100 µM, coculture fibroblast: HCFa | 0.8875 | 0.898 | 0.904 | 0.902 | 0.902 | 0.946 | 0.891 | 0.897 | 0.86
100 µM, coculture fibroblast: HCPF | 0.803 | 0.762 | 0.76 | 0.692 | 0.641 | 0.611 | 0.589 | 0.582 | 0.562
100 µM, coculture fibroblast: HHSteC | 0.921 | 0.947 | 0.947 | 0.929 | 0.943 | 0.96 | 0.922 | 0.907 | 0.875
100 µM, coculture fibroblast: HMF | 0.757 | 0.711 | 0.7303 | 0.693 | 0.681 | 0.666 | 0.67 | 0.662 | 0.653
100 µM, coculture fibroblast: HPFa | 0.936 | 0.837 | 0.82 | 0.855 | 0.919 | 0.877 | 0.838 | 0.83 | 0.77
100 µM, coculture fibroblast: HUF | 0.908 | 0.887 | 0.889 | 0.844 | 0.807 | 0.781 | 0.76 | 0.757 | 0.75
100 µM, coculture fibroblast: Hs5 | 0.713 | 0.69 | 0.6984 | 0.668 | 0.6653 | 0.6273 | 0.6471 | 0.6392 | 0.626
100 µM, coculture fibroblast: Hs27A | 0.934 | 0.799 | 0.9162 | 0.827 | 0.855 | 0.945 | 0.808 | 0.826 | 0.815
100 µM, coculture fibroblast: Hs343T | 0.761 | 0.705 | 0.711 | 0.68 | 0.664 | 0.642 | 0.647 | 0.6405 | 0.64
100 µM, coculture fibroblast: WS1 | 0.856 | 0.837 | 0.846 | 0.799 | 0.791 | 0.784 | 0.772 | 0.758 | 0.757
